Results from PubChem BioAssay AID2685 (National Center for Advancing Translational Sciences (NCATS), 2010).
This is one part of the list. The main result of the screen is listed elsewhere. These columns were measured beside it and carry no call. Compounds called inactive in the main read-out are mostly missing here. Potencies come from curve fits of mixed quality, noted in brackets.

Assay: qHTS Assay for Lipid Storage Modulators in Drosophila S3 Cells;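 for cell number change: cells counted by Cell Tracker Red CMTPX staining in the red channel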
Conditions: BODIPY lipid droplet fluorescence, 18-24 h; for cell number change: measured here: cell count max response, cells fed with added oleic acid
How it was run: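 Drosophila S3 cells loaded with oleic acid (400 uM, as added) and compounds at several concentrations; lipid droplets imaged by 488-nm laser-scanning cytometry, 500–530 nm intensity and object ratio to cell channel. Percent activity normalized to 20 uM Triacsin C.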

[1] = measured here: cell number channel AC50, cells fed with added oleic acid
[2] = measured here: lipid fluorescence (Fed channel) AC50, cells fed with added oleic acid

CNc1nc2c(Cl)cc(Cl)cc2s1
cell number change: 3.92% | AC50 [1]: 0.00517 µM [rising, full curve, poor fit]

Cn1c(SCC(=O)Nc2ccc(F)cc2)nnc1C1CC1
cell number change: -5%

C=CCNC(=O)N1c2ccccc2Sc2ccccc21
cell number change: 14.2% | AC50 [2]: 0.82 µM [falling, full curve]

CCN(C(=O)COC(=O)c1c(C)noc1C)C1CCS(=O)(=O)C1 (stereo not given)
cell number change: -51.6% | AC50 [1]: 16.4 µM [falling, partial curve, poor fit] | AC50 [2]: 0.0058 µM [falling, full curve, poor fit]

O=C(/C=N/NC(=O)c1ccccc1Br)c1ccccc1
cell number change: 88.6% | AC50 [1]: 29.1 µM [rising, single point] | AC50 [2]: 29.1 µM [rising, single point]

CCOc1ccccc1NC(=O)CSc1ncnc2c1oc1ccccc12
cell number change: -2.19%

Cc1ccccc1N(C(=O)CNC(=O)c1cccs1)C(C(=O)NC1CCCC1)c1ccncc1 (stereo not given)
cell number change: -7.89% | AC50 [2]: 35.5 µM [rising, single point]

CCn1ncc([N+](=O)[O-])c1C(=O)Nc1c(C)cccc1C
cell number change: 5.03% | AC50 [2]: 3.66 µM [rising, full curve]

O=C(NCC1CCN(S(=O)(=O)c2ccccc2)CC1)Nc1ccc(F)cc1
cell number change: -1.06% | AC50 [1]: 2.06 µM [rising, partial curve]

C=CCn1c(CCc2cc(C(C)(C)C)c(O)c(C(C)(C)C)c2)n[nH]c1=S
cell number change: -4.81% | AC50 [2]: 2.59 µM [rising, full curve, poor fit]

CCSc1c(-c2ccccc2)nc2c(C)cccc2c1C(=O)O
cell number change: -34.3% | AC50 [1]: 32.6 µM [falling, single point] | AC50 [2]: 29.1 µM [falling, single point]

COc1ccc2ccccc2c1CN(C)Cc1ccccc1
cell number change: -8.03%

CCCOc1ccc(Cl)cc1CN1CCOCC1
cell number change: -10.3% | AC50 [2]: 0.92 µM [falling, partial curve, poor fit]

O=C(O)c1ccc(/C=N/Nc2nc(N3CCCCC3)nc(N3CCCCC3)n2)cc1
cell number change: 24.5% | AC50 [2]: 29.1 µM [rising, single point]

CCCS(=O)(=O)c1nc(S(=O)(=O)c2ccc(C)cc2)c(N2CCOCC2)s1
cell number change: -32.4% | AC50 [1]: 35.5 µM [falling, single point]

Cc1csc(NC(=O)[C@@H]2CCCN2C(=O)c2cccs2)n1
cell number change: 7.28%

COc1cccc(C#Cc2c(CO)[nH]c3ccccc23)c1
cell number change: -0.776% | AC50 [2]: 25.9 µM [falling, single point]

COc1ccccc1N(C)S(=O)(=O)c1ccc(Cl)c(C(=O)Nc2ccncc2)c1
cell number change: 2.78% | AC50 [2]: 18.4 µM [falling, single point]

CCOC(=O)c1[nH]c(C)c(C(=O)OCC)c1C
cell number change: 6.45% | AC50 [2]: 0.0366 µM [rising, single point]

CC(=O)Nc1cccc(C(=O)OCC(=O)NNC(=O)c2ccc([N+](=O)[O-])cc2)c1
cell number change: 13%

CC1CCN(C(=O)/C(=C\c2ccccc2F)NC(=O)c2ccccc2)CC1
cell number change: -24.4%

CCOC(=O)N1CCN(C(=O)CCc2c(C)nc3nc(C)nn3c2C)CC1
cell number change: -11.9% | AC50 [2]: 3.26 µM [falling, single point]

CCOC(=O)c1ccccc1NC(=O)N[C@@H](C)C(=O)OC
cell number change: -59.5% | AC50 [1]: 29.1 µM [falling, single point]

O=C(CSc1nc(=O)n(CCN2CCOCC2)c2c1CCCC2)Nc1ccc(F)cc1F
cell number change: -25% | AC50 [1]: 0.58 µM [rising, full curve]

CCN(Cc1ccncc1)C(=O)c1cc(COc2ccc(C)c(C)c2)on1
cell number change: -27.9%

CCc1ccc(C(=O)CSc2nnc(C3CC3)n2C2CC2)cc1
cell number change: 15.8% | AC50 [2]: 0.731 µM [falling, single point]

Cc1ccc(NC(=O)CSc2nnc3c(n2)[nH]c2ccccc23)cc1
cell number change: -13.3% | AC50 [2]: 6.51 µM [rising, single point]

COCCOC(=O)c1[nH]c2c(c1C)C(=O)CC(c1ccc(OC)cc1)C2 (stereo not given)
cell number change: 7.61% | AC50 [2]: 1.03 µM [rising, full curve]

CC(=O)Nc1cc(C(F)(F)F)ccc1OCC1CCCO1 (stereo not given)
cell number change: -13.2%

Cn1nnnc1SCC(=O)N1CCN(c2ccc(Cl)cc2)CC1
cell number change: -8.09%

COc1cccc(N2C(=O)CC(NNC(=O)c3cccs3)C2=O)c1 (stereo not given)
AC50 [2]: 14.6 µM [rising, partial curve]

CN1CCN(S(=O)(=O)c2ccc(N(C)CC(=O)Nc3ccc(F)cc3)nc2)CC1
cell number change: -32.7% | AC50 [1]: 32.6 µM [falling, single point]

Cc1ccc(CCNC(=O)CS(=O)Cc2nc(-c3cccs3)oc2C)cc1 (stereo not given)
AC50 [2]: 8.2 µM [rising, partial curve]

Cc1cc(Cl)ccc1OCCCC(=O)NNC(=O)c1ccncc1
cell number change: 33% | AC50 [1]: 16.4 µM [rising, partial curve, poor fit] | AC50 [2]: 0.231 µM [rising, full curve, poor fit]

COc1cccc(CNC(=O)Cc2csc(Nc3nc(=S)[nH]c4ccccc34)n2)c1
cell number change: 80.2% | AC50 [1]: 3.26 µM [rising, full curve] | AC50 [2]: 16.4 µM [rising, partial curve, poor fit]

CC1(C2CC2)NC(=O)N(CC(=O)Nc2ccccc2C#N)C1=O (stereo not given)
cell number change: -8.84%

CC(Oc1ccccc1)C(=O)OCC(=O)Nc1sccc1C(N)=O (stereo not given)
cell number change: -45.3% | AC50 [1]: 5.17 µM [falling, full curve] | AC50 [2]: 4.61 µM [falling, full curve]

C/C(CC(=O)Nc1ccc2c(c1)OCCO2)=N\NC(=O)COc1ccccc1
cell number change: -19.7%

COc1ccccc1NS(=O)(=O)c1cccc(NC(=O)Nc2ccccc2)c1
cell number change: 20.6% | AC50 [2]: 2.31 µM [rising, partial curve]

COc1ccccc1Nc1nn2c(=O)c3ccc(C(=O)N4CCC(C)CC4)cc3nc2s1
cell number change: -19.9% | AC50 [2]: 0.82 µM [falling, full curve]

CCN(CC)S(=O)(=O)c1ccc2[nH]c(=O)[nH]c2c1
cell number change: 41.2% | AC50 [1]: 2.31 µM [rising, partial curve]

O=C(Nc1c(C(=O)N2CCOCC2)cnn1-c1ccccc1Cl)c1ccco1
cell number change: 0.364% | AC50 [2]: 25.9 µM [falling, partial curve, poor fit]

CSc1ncccc1C(=O)OCC(=O)N(C)C
AC50 [1]: 0.82 µM [falling, single point]

COc1ccccc1NC(=O)N(Cc1ccco1)Cc1cc2cc(C)cc(C)c2[nH]c1=O
cell number change: 30.1% | AC50 [1]: 0.517 µM [rising, full curve] | AC50 [2]: 23.1 µM [rising, partial curve]

CCOC(=O)c1c(C)c(/C=N/Nc2ccccc2)n(C)c1C
cell number change: 1.54% | AC50 [2]: 6.51 µM [falling, single point]

CCOC(=O)c1ccc(NC(=O)C(CC)(CC)C(=O)OCC)cc1
cell number change: 10.8% | AC50 [2]: 4.11 µM [falling, single point]

CCCCN(C(=O)c1ccccc1Br)C1CCS(=O)(=O)C1 (stereo not given)
cell number change: 1.85% | AC50 [2]: 0.651 µM [falling, single point]

Cc1ccc2c(CN3CC(C)CC(C)C3)cc(=O)oc2c1 (stereo not given)
AC50 [2]: 0.58 µM [falling, single point]

COc1cccc(C(C(=O)NC2CCCCC2)N(C(=O)c2ccco2)c2ccccc2OC)c1 (stereo not given)
cell number change: -25.6%

FC(F)(F)c1cc(-c2cccs2)nc(N2CCOCC2)n1
cell number change: -6.76% | AC50 [2]: 9.2 µM [rising, partial curve]

CC1CCCC/C1=N\Nc1ccc(S(N)(=O)=O)cc1[N+](=O)[O-] (stereo not given)
cell number change: 367% | AC50 [1]: 25.9 µM [rising, partial curve]

C/C(=C(\C#N)C(=O)NCCCN1CCOCC1)N(C)C
cell number change: -74.3% | AC50 [1]: 20.6 µM [falling, single point] | AC50 [2]: 29.1 µM [falling, single point]

O=C(Cn1nnc(-c2ccccc2)n1)N1CCN(S(=O)(=O)c2ccc(Cl)cc2)CC1
cell number change: -4.46% | AC50 [1]: 6.51 µM [rising, single point] | AC50 [2]: 5.8 µM [rising, single point]

CS(=O)(=O)N1CCN(C(=O)c2ccncc2)CC1
cell number change: -17.4% | AC50 [1]: 0.326 µM [falling, full curve, poor fit] | AC50 [2]: 0.259 µM [falling, full curve, poor fit]

Cc1[nH]c(=O)c(C(=O)/C=C/c2ccccc2)c2c1CCCC2
cell number change: -52.9% | AC50 [1]: 29.1 µM [falling, single point] | AC50 [2]: 0.58 µM [falling, single point]

Cc1ccc(N(CC(=O)N2CCOCC2)S(C)(=O)=O)cc1Cl
cell number change: 1.98% | AC50 [2]: 0.731 µM [rising, single point]

Cn1nnnc1SCC(=O)NC(=O)NCc1ccccc1
cell number change: 168% | AC50 [1]: 29.1 µM [rising, single point]

CC(OC(=O)c1nc(Cl)ccc1Cl)C(=O)c1ccccc1 (stereo not given)
cell number change: -1.27% | AC50 [2]: 6.51 µM [falling, single point]

O=S(=O)(Nc1ccc(-c2csc(-c3ccccc3)n2)cc1)c1ccc(F)cc1
cell number change: -56.8% | AC50 [1]: 29.1 µM [falling, single point] | AC50 [2]: 29.1 µM [falling, single point]

O=C(CNC(=O)c1sc2ccccc2c1Cl)Nc1ccccc1F
cell number change: 132% | AC50 [1]: 9.2 µM [rising, partial curve]

CCOc1ccc(NC(=O)CN(C)C(=O)CCNC(=O)c2ccccc2Cl)cc1OCC
cell number change: 10.4%

CSc1nc2nc(-c3ccccc3)cc(=O)n2[nH]1
cell number change: -3.2% | AC50 [1]: 6.51 µM [falling, partial curve, poor fit]

COc1ccc(CNC(=O)c2cccc(N3CCCC3=O)c2)cc1
AC50 [2]: 29.1 µM [rising, single point]
